# Data reported in the supplement of paper PMC10338343.
# ± gives the standard deviation. The entries are a selection whose mix differs from that of the whole data set. Many entries were measured with a wide error.
# System: MIWI (PIWIL1) piRISC loaded with Kctd7 piRNA (30 nt)
# Assay: pre-steady-state target cleavage rate (min^-1); MIWI and MILI are mouse PIWI proteins and EfPiwi is from a freshwater sponge; tags in brackets are library labels; higher = faster piRNA-guided slicing of the target
# Details: guide: Kctd7 piRNA 5'p-UGUUAAUCUCUCAGAGAAGGUGACAGUGAU; auxiliary factor: 500 nM mouse GTSF1
# How it was run: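 Cleave-'n-Seq: 1 nM active affinity-purified piRISC with one synthetic guide and 0.1 nM transcribed, DNA-blocked target RNA library were mixed, with or without 500 nM GTSF1 partner protein, in HEPES–potassium acetate buffer at 33 °C for 0–8 or 0–960 min. Uncleaved targets were sequenced and normalised to depth and to weakly complementary targets, three trials were pooled, and k3 was capped at 0.0001 min^-1. The pre-steady-state cleavage rate was fitted […].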
row,Sequence,pre-steady-state target cleavage rate
1,UAGUGACAGUCCUUCUCAGAGAGAUUAAGA,0.00158 ± 0.0048
2,UAGUCUGUCACCUUCUCUGAGACUUUUUGA,0.00218 ± 0.0046
3,UACACUGUCAGCUUCUCUGAGAGAUAUUGA,0.00175 ± 0.0056
4,UACACGGUCACCUUCUCUGAGAGAUUAACA,0.593 ± 0.027
5,UAGUGACAGUGCUUCUCUGAGAGGUUAACA,0.00223 ± 0.0033
6,UAGUCUGUCAGCUUCUCUGACAGAUUAACA,0.00184 ± 0.0062
7,UAGUGACAGUGGAACUCUGAGAGUAUUAACA,0.000119 ± 0.039
8,UAGUGAGUCUGCUUCUCUGAGAGAUUUUGA,0.000535 ± 0.0085
9,UAGUGACAGUGCUUCUCAGAGUGAUUAACA,0.00112 ± 0.0058
10,UAGUGACUCACCUUCUCUGAGAAUUAACA,0.000859 ± 0.0097
11,UAGUGACACACCUUCUCAGUGAGAUUAACA,0.00441 ± 0.0046
12,UAGUGACAGUCCUUACUCUGAGAGAUUAACA,0.0326 ± 0.0043
13,UUGACUGUCACCUACUCUGAGAGAUUAACA,0.689 ± 0.041
14,UACACUGUCACCUUCAGUGAGAGAUAUUGA,0.00148 ± 0.012
15,UUCACUGUCACCUUUUCUGAGAGAUUAACA,0.679 ± 0.028
16,UUCACUGUCAGCUUCUCUGAGAGAUUAACA,0.723 ± 0.032
17,UAGUCUCAGACCUUCUCUGAGAGAUUUUGA,0.00193 ± 0.0052
18,UAGUGAGUCACCUUCUGACAGAGAUUUUGA,0.00131 ± 0.0086
19,UAGUGACACACCUAGACUGAGAGAUUAACA,0.00089 ± 0.0085
20,UAGUGACUCACCUUCUGACAGAGAUUAACA,0.000332 ± 0.023
21,UAGUGACAGACCUUCUCUGAGAGUUUUUGA,0.000939 ± 0.013
22,UAGUGACAGUGGAACUCUGAGUGAUUUACA,0.000134 ± 0.043
23,UUCACUGUCACCUUCUCUGAGACUAUAUGA,0.00159 ± 0.0043
24,UAGUGACUCACCUUGACUGAGAGAUUAAGA,0.000806 ± 0.011

row,Sequence,pre-steady-state target cleavage rate
1,UAGUGUGUCACCUUCUCUCAGAGAUAUUGA,0.00393 ± 0.0047
2,UAGUGACAGUCCUUCUCUGUGACAUUAACA,0.00173 ± 0.0038
3,UACACUCUCACCUUCACUGAGAGAUUAACA,0.256 ± 0.02
4,UAGUGACAGACCUUCACAGAGAGAUUAACA,0.00158 ± 0.0076
5,UAGACUGUCACCUCUCUGAGAGAUUAACA,0.321 ± 0.036
6,UAGUCUGUCACCUCUCUCUGAGAGAUUAACA,0.481 ± 0.032
7,UAGUGACAGUGCUUGUCUGAGUGAUUAACA,0.000644 ± 0.01
8,UAGUGACAGACCUUCUCUGAGACAUUAUGA,0.000563 ± 0.013
9,UAGUCUGUCACCUUGUCUGACAGAUUAACA,0.00146 ± 0.0078
10,UUCACUGUCACCUUCUCUGAGAGUUUAUCA,0.27 ± 0.061
11,UAGUGACAGUGCUUCUCUGUGAGAAUAACA,0.000422 ± 0.011
12,UAGUGACAGUGCUUCUCUGUGUGAUUAACA,0.000916 ± 0.006
13,UAGUGACACACCUACUCUGAGAGAUAUUGA,0.000424 ± 0.012
14,UAGUGACUCACCAUCUCUGAGAGUUUAACA,0.173 ± 0.035
15,UAGACUGUCACCUUGAGUGAGAGAUUAAGA,0.000574 ± 0.011
16,UAGUGACAGUGCUUCUGUGAGAGAUUAAGA,0.000792 ± 0.0082
17,UACACUGUCACCUUCUCUGACUGAUUAUGA,0.00134 ± 0.012
18,UUCACUGUCACCUUCUCUGAGUCAUAUUGA,0.00246 ± 0.0033
19,UAGACUGUCACCUAGUCUGAGAGAUAUUGA,0.000769 ± 0.0068
20,UAGUGACAGUGCAUUCUCUGAGAGAUUAACA,0.0141 ± 0.0028
21,UAGUGACAGUCCAAGUCUGAGAGAUUAACA,0.000295 ± 0.017
22,UAGUGACAGUGCUCUCUGAGAGAUUAACA,0.000237 ± 0.0092
23,UAGUGACAGUGGAAGAGAGAGAGAUUACCA,0.000297 ± 0.018
24,UAGUGUGUCACCUACUCUCAGAGAUUAACA,0.0454 ± 0.009

# A run of entries of the results above, as a working copy:
row,Sequence,pre-steady-state target cleavage rate
1,UAGUGUGUCACCUUCUCUCAGAGAUAUUGA,0.00393 ± 0.0047
2,UAGUGACAGUCCUUCUCUGUGACAUUAACA,0.00173 ± 0.0038
3,UACACUCUCACCUUCACUGAGAGAUUAACA,0.256 ± 0.02

# Next part:

row,Sequence,pre-steady-state target cleavage rate
1,UACACUGUCAGGUUCUCUGAGAGAUUUUGA,0.00198 ± 0.0045
2,UAGUGACAGUGGAAGAGUGAGAGUUUAUCA,0.000371 ± 0.016
3,UAGUCUGUCACCUUCUCUGAGUCUUUAUGA,0.00112 ± 0.006
4,UAGUGACACACGAUCUCUGAGAGAUUAUGA,0.000277 ± 0.025
5,UAGUGACAGACCUUCUCUGAGAGUUAACA,0.00107 ± 0.01
6,UACACUGUCACCUUCUCUGUCAGAUUAAGA,0.00468 ± 0.006
7,UAGACAGUGACCUUCUCUGAGAGAUUAACA,0.554 ± 0.033
8,UAGACUGUCACCUUCUCACUGAGAUUUUGA,0.000875 ± 0.0084
9,UAGUGACAGACCUUCUCUGAGAUGAUUAACA,0.000805 ± 0.0076
10,UAGUCUGUCACCUUCUCUGAGUCAUUAAGA,0.00135 ± 0.0053
11,UAGUGACUCACCUUCUCUGGAGAGAUUAACA,0.000546 ± 0.013
12,UAGUGACACACCUUCUCUGAGAGUAUAUGA,0.0031 ± 0.004
13,UAGUGACACACGAUCUCUGAGAGAUUAAGA,0.00171 ± 0.0036
14,UAGACUGUCUGCUUCUCUGAGAGAUUUUGA,0.00067 ± 0.01
15,UAGUGACAGACCUUCGUCUGAGAGAUUAACA,0.00238 ± 0.0046
16,UAGUGACACACCUUCUCUGACUCAUUAACA,0.00115 ± 0.0052
17,UACACUGUCACCUUCUCUGUCUGAUUAUGA,0.00287 ± 0.0084
18,UACACUGUCACCUUCUCUCAGAGAUAUUGA,0.00311 ± 0.0061
19,UAGUGACAGUCCUUGACUGAGAGAUUAUGA,0.000477 ± 0.012
20,UAGUGUGUCACCUUGACUGAGAGAUUUUGA,0.00069 ± 0.012
21,UAGUGUGUCACCUUCUCUGAGACUAUAUGA,0.00115 ± 0.0091
22,UAGUGACAGUGGAAGAGAGACUCAUUAACA,0.000426 ± 0.012
23,UAGUGACAGUGGUUCACUGAGAGAUUUACA,0.000444 ± 0.018
24,UUCACUGUCACCUUCUCUGACUCAUUAUGA,0.00155 ± 0.0042
